Measurements reported in PubChem BioAssay AID1259425 (University of Nebraska Medical Center, 2018)
Aim: 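Find knockdowns that reproduce the gene expression pattern seen when KSR1 is lost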 (primary screen). Cell system: HCT116 human colon cancer cells. Reagent: siRNA pool against human genes, 50 nM siRNA. Measured: 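mRNA of six signature genes measured together by branched-DNA assay after 50 nM siRNA pool, blank removed, divided by geometric mean of two housekeeping genes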. Direction: BNIP3L mRNA: higher = more BNIP3L transcript after knockdown.
In all, the deposit lists about 14,000 reagents; below is a random part of them. Further read-outs or replicates are left out here. Not given: the time to read-out.

{"Gene": "CSH2", "BNIP3L mRNA, set 1": 0.2}
{"Gene": "FABP5", "BNIP3L mRNA, set 1": 0.0785}
{"Gene": "ACVR1C", "BNIP3L mRNA, set 1": 0.09}
{"Gene": "SMAD2", "BNIP3L mRNA, set 1": 0.178}
{"Gene": "CLCC1", "BNIP3L mRNA, set 1": 0.108}
{"Gene": "NRG2", "BNIP3L mRNA, set 1": 0.137}
{"Gene": "ING1", "BNIP3L mRNA, set 1": 0.206}
{"Gene": "C4orf17", "BNIP3L mRNA, set 1": 0.223}
{"Gene": "TRPM2", "BNIP3L mRNA, set 1": 0.0782}
{"Gene": "ABAT", "BNIP3L mRNA, set 1": 0.0459}
{"Gene": "LLGL2", "BNIP3L mRNA, set 1": 0.189}
{"Gene": "IDH3B", "BNIP3L mRNA, set 1": 0.0468}
{"Gene": "COL17A1", "BNIP3L mRNA, set 1": 0.106}
{"Gene": "SHD", "BNIP3L mRNA, set 1": 0.194}
{"Gene": "XPR1", "BNIP3L mRNA, set 1": 0.16}
{"Gene": "IFIT1", "BNIP3L mRNA, set 1": 0.142}
{"Gene": "GTPBP2", "BNIP3L mRNA, set 1": 0.139}
{"Gene": "TFIP11", "BNIP3L mRNA, set 1": 0.0657}
{"Gene": "GPSM3", "BNIP3L mRNA, set 1": 0.143}

Entries above whose gene name starts with G or g:
{"Gene": "GTPBP2", "BNIP3L mRNA, set 1": 0.139}
{"Gene": "GPSM3", "BNIP3L mRNA, set 1": 0.143}
